“Also recorded” adds a separate entry of the source. At least one compound was matched to its structure with a doubt left.
System: Cryba1 KO RPE explants
Assay: Rescue experiments in RPE explants exposed to FAC and Ad-LCN-2 (Western blot, ROS)
Format: cell-based, mouse
Conditions: pre-treatment, then FAC and Ad-LCN-2
From the text: RPE explant culture was done as previously described (Shang et al., Commun. Biol., 4(1): 850 (2021)). Briefly, eyeballs were enucleated from WT, Cryba1 KO, Sting KO or Sting^GT mice respectively, immediately after euthanasia by putting in CO2 chamber. The posterior eyecups were cut into four petals after the removal of anterior segments and the neural retina was carefully removed. The resulting RPE-Choroid-Sclera (RCS) complexes were flattened onto PVDF membranes with the RPE cells facing up and cultured as previously described. For experiments involving iron regulation, RPE explants from different genotypes were cultured in presence of ferric ammonium citrate (FAC, Sigma Aldrich, RES20400-A702X) at a dose of 250 μM for 72 h (Hadziahmetovic et al., Am. J Pathol., 179(1): 335-48 (2011)); Chothe et al., Biochem. Biophys. Res. Commun., 405(2): 244-9 (2011)), Adenovirus-LCN-2 (10^7 vg/ml, Ad-LCN-2, Vector Biolabs, ADV-263329) construct for 48 h and with or without chloroquine (ChQ; Sigma Aldrich, C6628-25G), a lysosomal blocker at a dose of 50 μM for the last 6 h of the experimental duration. For rescue experiments, Cryba1 KO explants were cultured and pre-treated with either Def (100 μM for 24 h; Sigma Aldrich, D9533-1G) or Sting inhibitor (H-151; 1 μM for 6 hours; Invitrogen, inh-h151) which was followed by FAC and Ad-LCN-2 treatment as explained above.
Whole cells lysates were made from RPE cells harvested from Cryba1^fl/fl or Cryba1 cKO mice or from in vitro RPE flat mount cultures from different experimental conditions as explained previously. The lysates were either made in 1×RIPA buffer (EMD Milipore, Cat #20-188) or NATIVE lysis buffer (Abcam, ab156035) containing 0.1% of a protease inhibitor cocktail (Sigma Aldrich, 13786) and 0.1% phosphatase inhibitor cocktail (Sigma Aldrich, P0044-5ML). The protein extracts were subjected to quantification by using the Pierce BCA Protein Assay Kit (Thermo Fisher, 23225). The RIPA protein samples were mixed with 4× protein sample buffer (Life Technologies, NP0007) containing 5% 2-mercaptoethanol (Sigma Aldrich, M6256) and heated at 95° C. for 10 min to denature. The native protein samples were mixed with NATIVE sample buffer (Bio-Rad, 1610738) at a 1:1 ratio. The native samples were loaded on NATIVE-PAGE gels (Thermo Fisher, BN1002BOX) and run using NATIVE-PAGE running buffer (Thermo Fisher, BN2001). Samples were loaded onto a 4-12% Bis-Tris Nu-PAGE gel (Invitrogen, NP0323BOX) and run with MES buffer (Invitrogen, NP0002). Proteins were transferred to nitrocellulose membranes (Invitrogen, 1B23001), which were then blocked in 5% blocking grade skim milk (Bio-Rad, 170-6404) or 5% BSA (Sigma Aldrich, A3912-50G) for phosphorylated proteins. The membranes were incubated with the appropriate primary antibody overnight followed by horseradish peroxidase-conjugated anti-rabbit (KPL, 074-1506) or anti-mouse (KPL, 074-1806) secondary antibodies for 1 h at RT. A chemiluminescence development technique was utilized to develop the blots (GE Healthcare, RPN2209) and the blots were imaged using the Azure imaging system (Azure Biosystems, USA). Densitometry was performed to estimate the protein expression relative to the loading control (ACTIN or VINCULIN) using ImageJ software (National Institute of Health, USA) (Ghosh et al., J Pathol., 241(5): 583-588 (2017); Shang et al., Aging Cell, 16(2): 349-359 (2017)).
The ROS generation in 10-month-old RPE cells from Cryba1^fl/fl and Cryba1 cKO mice was evaluated as described previously (Ghosh et al., Cell Signal., 68: 109521 (2020)). Briefly, a 10% tissue homogenate was prepared in PBS and centrifuged at 1800×g for 10 mn, followed by centrifugation at 31,500×g for 10 min to obtain the pellet. The obtained pellet was dissolved in HEPES buffer, pH 7.4 (Sigma Aldrich, H7006-100G). The sample was incubated for 15 min at 37° C. with 5 μM dihydroethidium (DHE; Fisher Scientific, D11347). […]

SMILES: CC(=O)N(O)CCCCCNC(=O)CCC(=O)N(O)CCCCCNC(=O)CCC(=O)N(O)CCCCCN [deferoxamine]
- STING levels (Western blot): reduced
- cGAS levels (Western blot): reduced
- NLRP3 levels (Western blot) (vs vehicle (DMSO)): rescued the levels of NLRP3 inflammasome expression
- SOD1 levels (Western blot) (vs vehicle (DMSO)): decreased
- NLRP3 levels (Western blot) (vs vehicle (DMSO), listed as Def): significantly reduced
- ROS levels (vs vehicle, listed as Def): decreased; also recorded: rescued

Reference: patent US20250042983A1, “ANTI-LCN-2 ANTIBODIES AS A TREATMENT FOR EYE DISORDERS” (UNIVERSITY OF PITTSBURGH - OF THE COMMONWEALTH SYSTEM OF …, priority 2021, published 2025)
